Among the data in PubChem BioAssay AID694 (Emory University Molecular Libraries Screening Center, 2007) are inhibition values, retold here.

Amino acid sequences for entries named in this document (tags omitted).
UniProt P03372, whole entry, looked up: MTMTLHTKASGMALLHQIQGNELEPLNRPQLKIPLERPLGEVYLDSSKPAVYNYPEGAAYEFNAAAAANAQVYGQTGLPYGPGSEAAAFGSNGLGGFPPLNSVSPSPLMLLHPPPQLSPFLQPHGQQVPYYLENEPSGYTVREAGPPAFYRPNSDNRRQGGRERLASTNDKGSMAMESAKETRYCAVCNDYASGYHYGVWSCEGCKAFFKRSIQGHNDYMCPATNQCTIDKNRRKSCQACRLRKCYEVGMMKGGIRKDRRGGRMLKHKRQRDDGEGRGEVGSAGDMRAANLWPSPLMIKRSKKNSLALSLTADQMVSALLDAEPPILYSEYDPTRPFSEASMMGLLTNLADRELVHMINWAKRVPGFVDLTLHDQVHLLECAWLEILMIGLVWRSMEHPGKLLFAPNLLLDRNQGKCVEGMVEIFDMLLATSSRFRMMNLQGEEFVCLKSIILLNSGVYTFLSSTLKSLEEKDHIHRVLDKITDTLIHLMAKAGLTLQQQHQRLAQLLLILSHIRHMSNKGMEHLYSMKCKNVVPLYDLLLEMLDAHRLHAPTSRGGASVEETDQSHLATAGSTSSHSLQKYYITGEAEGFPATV

The other results are listed elsewhere or left out. The main result of the screen is listed elsewhere. These columns were measured beside it and carry no call.

The target in this test is Estrogen receptor (Homo sapiens) (UniProt P03372). Nature of the test: ERα coactivator peptide binding inhibitors, primary screen, biochemical, LOPAC library, TR-FRET (AID 694).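 Further: receptor was agonist-bound with estradiol present during the assay.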 Particulars: TR-FRET ERalpha-coactivator peptide binding, at 15 µM, stronger effect = higher value. Background: Time-resolved FRET reads energy transfer from a long-lived donor to a nearby acceptor.
A word on the inhibition: it is the drop in the measured response relative to a control, in per cent. With `Oc1ccc(/C=C/c2cc(O)cc(O)c2)cc1`, the inhibition was found to be 4.05%.

For the molecule `CN(C)C(=O)C(CCN1CCC(O)(c2ccc(Cl)cc2)CC1)(c1ccccc1)c1ccccc1`, the inhibition was -0.92%.

On to `O=C(O)C1CCCNC1` (configuration not stated), for which the inhibition is -4.47%.

Consider `COC1(C2=NCCN2)COc2ccccc2O1` (configuration not stated), for which the inhibition was 2.09%. For `CC(C)NC[C@@H](O)COc1ccc(CC(N)=O)cc1`, the inhibition turned out to be 3.19%. Take `Nc1cc(=O)[nH]c(N)n1`: the inhibition was -5.05%. Next, `CCn1c(=O)[nH]c2cc(Cl)c(Cl)cc21`: 0.94%; `O=C(O)[C@@H]1C[C@H](C(=O)O)N1`: -5.94%; `S=C(S)N1CCCC1`: 6.4%.

In the case of `NS(=O)(=O)c1cc2c(cc1Cl)NC(C1CC3C=CC1C3)NS2(=O)=O` (configuration not stated), the inhibition is -1.87%. Next, `NC(N)=NC(=O)c1nc(Cl)c(N)nc1N`: 7.06%; `C[C@@H](NCCc1ccc(O)cc1)[C@@H](O)c1ccc(O)cc1`: 0.31%; `Nc1ncnc2c1nc(Br)n2C1OC2COP(=O)(O)O[C@@H]2C1O` (some centres not stated): 0.28%. Turning to `Ic1ccc(N2CCN(Cc3c[nH]c4ncccc34)CC2)cc1`, the inhibition is -5.13%.

`Cn1cnc([N+](=O)[O-])c1Sc1ncnc2nc[nH]c12`: the inhibition was found to be 2.31%.

As to `Nc1cc(Cl)c(NC2=NCCN2)c(Cl)c1`, the inhibition is -3.62%.

Consider `OCCN(CCO)c1nc(N2CCCCC2)c2nc(N(CCO)CCO)nc(N3CCCCC3)c2n1`, for which the inhibition turned out to be 4.03%.

Turning to `O=c1onc2cnc3ccccc3n12`, the inhibition came to 27%.

For the molecule `N#Cc1cc2nc(O)c(O)nc2cc1[N+](=O)[O-]`, the inhibition came out at 20.1%.

For the molecule `CN(C)C(N)=NCCC[C@H](N)C(=O)O`, the inhibition was found to be 6.27%. `N[C@@H](CS(=O)O)C(=O)O`: the inhibition is -0.96%. Next, `Cc1ccc(=O)n(-c2ccccc2)c1`: -0.24%; `O=C(O)c1cc(=O)c2c(Cl)cc(Cl)cc2[nH]1`: 3.54%; `C1CCc2nnnn2CC1`: 1.51%.

On to `CC(C)OC(=O)C(C)(C)Oc1ccc(C(=O)c2ccc(Cl)cc2)cc1`, for which the inhibition was 4.73%. Next, `O=C(O)CC1CCCc2ccccc2C1O` (configuration not stated): -2.43%; `COc1cc2ncnc(Nc3cccc(Cl)c3)c2cc1OC`: -1.55%; `O=C(O)c1cc2cc(Cc3cccnc3)ccc2o1`: -1.28%.

In the case of `N#C/C(=C\c1ccc(O)c(O)c1)C(=O)NCCCc1ccccc1`, the inhibition came out at 1.17%. Under `CC1CCN=C(N)S1` (configuration not stated) stands -2.26%. Regarding `Nc1ncnc2c1ncn2[C@@H]1O[C@H](COP(=O)(O)OP(=O)(O)OP(=O)(O)OP(=O)(O)OC[C@@H]2O[C@H](n3cnc4c(N)ncnc43)C(O)[C@@H]2O)[C@H](O)C1O` (some centres not stated), the inhibition was -2.43%. With `OC1(c2ccc(Cl)cc2)CCN(Cc2c[nH]c3ccccc23)CC1`, the inhibition is -0.66%. Under `NC(=Nc1ccccc1)NC(=O)c1nc(Cl)c(N)nc1N` stands 3.25%. Next, `Cc1nc2ccccn2c(=O)c1CCN1CCC(C(=O)c2ccc(F)cc2)CC1`: 1.74%.

For the molecule `O=C(CCNNC(=O)c1ccncc1)NCc1ccccc1`, the inhibition came to 0.93%. Under `CCCn1c(=O)c2[nH]c(C3CCCC3)nc2n(CCC)c1=O` stands 6.3%; under `NC(=O)c1cnccn1`, 6.45%. Under `N=C(N)c1ccc(N)cc1` stands -6.06%; under `O=C1Cc2c([nH]c3ccc(Br)cc23)-c2ccccc2N1`, 5.71%; under `CNCCCC12CCC(c3ccccc31)c1ccccc12`, 0.91%. Next, `CCNC(=O)[C@H]1O[C@@H](n2cnc3c(N)nc(NCCc4ccc(CCC(=O)O)cc4)nc32)C(O)[C@H]1O` (some centres not stated): -0.99%.

On to `Oc1cc2c(cc1O)CN(C(=S)NCCc1ccc(Cl)cc1)CCC2`, for which the inhibition is -1.58%. Next, `C[C@]12C=CC(=O)C=C1CC[C@H]1[C@@H]3C[C@@H](O)[C@](O)(C(=O)CO)[C@@]3(C)C[C@H](O)[C@@]12F`: -0.94%; `CC(=O)CCCCn1c(=O)c2c(ncn2C)n(C)c1=O`: 5.15%. Next, `O=c1c(-c2ccc(O)cc2)coc2cc(O)ccc12`: -0.78%; `COC(=O)c1c(-c2cc(OC)c(OC)c(OC)c2)c2ccc(OCc3ccccn3)cc2c(=O)n1-c1ccc(N)cc1`: 3.91%; `NC(=O)OCC(COC(N)=O)c1ccccc1`: -1.08%. Turning to `COCc1nc2c([nH]1)c(=O)n(C)c(=O)n2CC(C)C`, the inhibition is 0.03%. Under `CCCCCCCCCC[Si](C)(C)CCC(=O)NC(Cc1ccc(C)cc1)c1ccccc1` (configuration not stated) stands -6.18%. Next, `CCCCCC(O)c1cccc(OCc2ccc3ccccc3n2)c1` (configuration not stated): -1.71%; `OC[C@H]1O[C@@H](n2cnc3c(Nc4ccccc4)ncnc32)C(O)[C@H]1O` (some centres not stated): 7.38%; `Cn1ccnc1`: -2.64%. Next, `N#C/C(=C\c1ccc(O)c(O)c1)C(=O)NCCc1ccccc1`: 5.01%; `O=c1cc(-c2ccccc2)[nH]c2nc(Cl)ccc12`: 0.93%. In the case of `O=c1[nH]c(=O)c2nc3ccccc3nc2[nH]1`, the inhibition came to 2.52%. `Oc1ccc(Cn2cc[nH]c2=S)cc1`: the inhibition came to 3.12%.

For the molecule `c1ccc(-c2ccccn2)nc1`, the inhibition is -5.37%. Take `CC(C)C[C@H](NC(=O)C1OC1C(=O)O)C(=O)NCCCCN=C(N)N` (some centres not stated): the inhibition was determined as 1.94%. Turning to `C[C@]12C[C@H](O)[C@H]3[C@@H](CCC4=CC(=O)CC[C@@]43C)[C@@H]1CC[C@@H]2C(=O)CO`, the inhibition is -9.64%. Next, `Nc1c2c(nc3ccccc13)CCCC2`: -2.38%; `CC(=O)SC1CC2=CC(=O)CC[C@]2(C)C2CC[C@@]3(C)C(CC[C@@]34CCC(=O)O4)C12` (some centres not stated): 3.19%.

`NC(N)=NC(=O)c1nc(Cl)c(N2CCCCCC2)nc1N`: the inhibition stood at 3.67%. Under `O=C(c1ccc2c(c1)OCCO2)N1CCCCC1` stands -2.26%. `CC(C)CN(C)c1nc(N)c(C(=O)N=C(N)N)nc1Cl`: the inhibition is -5.29%. With `COC(=O)C(C)(N)Cc1ccc(O)cc1` (configuration not stated), the inhibition came out at 1.56%.

As to `O=C1OC(=O)C2C3CCC(O3)C12` (configuration not stated), the inhibition came out at 4.36%. Next, `NCCC1CCCC(CCN)N1` (configuration not stated): -3.21%; `COC(=O)c1c(C)[nH]c(C)c1C(=O)c1ccccc1Cc1ccccc1`: 3.45%. Take `COc1cc(C(O)CO)ccc1OS(=O)(=O)O` (configuration not stated): the inhibition was 6.49%. Next, `CC(C(=O)O)c1cccc(C(=O)c2ccccc2)c1` (configuration not stated): 1.26%; `O=C1O/C(=C/Br)CCC1c1cccc2ccccc12` (configuration not stated): -3.43%; `CCOC(=O)c1ncn2c1CN(C)C(=O)c1cc(F)ccc1-2`: -5.94%. `O=NN(CCCl)C(=O)NCCCl`: the inhibition worked out at 2.36%.

In the case of `CC[C@H](NC(=O)c1c(C)c(-c2ccccc2)nc2ccccc12)c1ccccc1`, the inhibition was -2.63%. In the case of `NCC(O)(CS(=O)(=O)O)c1ccc(Cl)cc1` (configuration not stated), the inhibition is -1.52%. Turning to `CCCC(=O)NCCc1c2n(c3ccc(OC)cc13)Cc1ccccc1-2`, the inhibition is 8.15%. On to `NCC1OC(O[C@@H]2[C@H](O)C(OC3C(O)C(N)CC(N)C3OC3OC(CO)C(O)C(O)C3N)O[C@@H]2CO)C(N)C(O)C1O` (some centres not stated), for which the inhibition is -1.29%.

Take `C[N+](C)(CCCCCC[N+](C)(C)CCCN1C(=O)c2cccc3cccc(c23)C1=O)CCCN1C(=O)c2cccc3cccc(c23)C1=O`: the inhibition came out at 4.12%. Next, `CC(=O)O[C@H]1C(=O)[C@@]2(C)C([C@H](OC(=O)c3ccccc3)[C@]3(O)C[C@H](OC(=O)[C@H](O)[C@@H](NC(=O)c4ccccc4)c4ccccc4)C(C)=C1C3(C)C)[C@]1(OC(C)=O)CO[C@@H]1C[C@@H]2O` (some centres not stated): 1.91%.

Take `O=c1onc2n1-c1cc(Br)ccc1OC2`: the inhibition came to 1.61%.

As to `Cc1ccc(/C(=C\CN2CCCC2)c2ccccn2)cc1`, the inhibition stood at 0.44%. Under `CNCCC=C1c2ccccc2CCc2ccccc21` stands 3.17%.

For `Cn1cc(C2=C(c3ccc(Cl)cc3Cl)C(=O)NC2=O)c2ccccc21`, the inhibition was 20.1%. As to `COc1cc(OC)c(/C=C2/C(=O)Nc3ccccc32)c(OC)c1`, the inhibition was -5.44%.

In the case of `COc1cc2nc(N3CCN(C(=O)OCc4ccccc4)C(C(=O)NC(C)(C)C)C3)nc(N)c2cc1OC` (configuration not stated), the inhibition came to 2.03%. As to `Cc1ccc(C(=O)Nc2ccc(S(=O)(=O)O)c3cc(S(=O)(=O)O)cc(S(=O)(=O)O)c23)cc1NC(=O)c1cccc(NC(=O)Nc2cccc(C(=O)Nc3cc(C(=O)Nc4ccc(S(=O)(=O)O)c5cc(S(=O)(=O)O)cc(S(=O)(=O)O)c45)ccc3C)c2)c1`, the inhibition was found to be 15.1%. As to `NC(=O)c1ncn([C@@H]2O[C@H](CO)[C@@H](O)[C@H]2O)c1O`, the inhibition is -0.32%. As to `Cn1c(=O)c2[nH]c(-c3ccc(S(=O)(=O)O)cc3)nc2n(C)c1=O`, the inhibition was -4.48%. In the case of `FC(F)(F)c1cc(CO[C@H]2CCCN[C@H]2c2ccccc2)cc(C(F)(F)F)c1`, the inhibition was -2.19%. Next, `CC(N)(C(=O)O)c1ccc(C(=O)O)cc1` (configuration not stated): -2.05%; `CC#CCOC(=O)c1c(C)nc2sc3c(c2c1N)CCC(O)C3` (configuration not stated): -0.68%. Next, `CN1CCc2cccc3c2C1Cc1ccc(O)c(O)c1-3` (configuration not stated): 1.36%; `O=C(O)C1=CCNCC1`: -1.31%; `CCn1cc(C(=O)O)c(=O)c2cc(F)c(N3CCNC(C)C3)c(F)c21` (configuration not stated): -2.39%. Under `O=c1ccc2c(OCCCCc3ccccc3)c3ccoc3cc2o1` stands -3.76%; under `C[C@]12C=CC(=O)C=C1CC[C@@H]1C2=CC[C@]2(C)[C@@H](C(=O)CN3CCN(c4cc(N5CCCC5)nc(N5CCCC5)n4)CC3)CC[C@@H]12`, -4.73%; under `NC(N)=N/N=C/c1c(Cl)cccc1Cl`, 2.85%. As to `CN(C)CCC=C1c2ccccc2C=Cc2ccccc21`, the inhibition came to 2.12%.

Turning to `NS(=O)(=O)c1cc2c(cc1Cl)NCNS2(=O)=O`, the inhibition worked out at 14.4%. As to `CC1=C(/C=C/C(C)=C/C=C/C(C)=C/C(=O)Nc2ccc(O)cc2)C(C)(C)CCC1`, the inhibition is 8.26%. In the case of `COc1cc2c(cc1OC)[C@@H](c1ccccc1)CN(C)CC2`, the inhibition is -4.22%. Next, `CCN(CC)C(C)C(=O)N1c2ccccc2Sc2ccccc21` (configuration not stated): 0.36%; `CC(=O)OCC(=O)[C@@]1(O)CC[C@H]2[C@@H]3CCC4=CC(=O)CC[C@]4(C)[C@H]3C(=O)C[C@@]21C`: 2.85%. For the molecule `CN1CCC2(CCN3CCc4c(oc5ccccc45)C3C2)N(C)C1=O` (configuration not stated), the inhibition is -8.25%. Next, `Cn1cc(C(=O)OCC2CCN(CCNS(C)(=O)=O)CC2)c2ccccc21`: -1.85%; `COc1cc2nc(N3CCN(C(=O)C4CCCO4)CC3)nc(N)c2cc1OC` (configuration not stated): -0.94%; `COc1ccc(CCN(C)CCc2ccc(OC)c(OC)c2)cc1OC`: 5.81%. Turning to `Cc1ccccc1/C=C/C1=NCCN1`, the inhibition was -3.56%. Take `O=c1[nH]cc(F)c(=O)[nH]1`: the inhibition was -1.46%. Regarding `COC(=O)C1=C(C)NC(C)=C(C(=O)OC)C1c1ccccc1[N+](=O)[O-]`, the inhibition was found to be 3.28%. Under `CCCCCCCCCCCCCCCCCCOC[C@H](COP(=O)([O-])OCC[N+](C)(C)C)OC` stands -2.04%; under `CNc1cc(NS(=O)(=O)c2ccc(N)cc2)nc(NC)n1`, -6.18%.
